The list shows a part of the results. Single values are uncertain here, since repeats match poorly.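 Human kidney-derived cells stably carry a construct in which eight TEAD-binding elements drive luciferase, measured by luminescence in a drug-repurposing library screen. A hit is any compound whose signal exceeds the plate mean by more than five robust Z scores.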
System: HEK293A TEAD-LUC reporter
Experiment: TEAD-luciferase reporter activity (YAP activation), robust Z score vs plate; higher = stronger YAP/TEAD activation
Settings: 24 h

SMILES	TEAD-luciferase reporter activity (compound concentration: 200 nM)	TEAD-luciferase reporter activity (compound concentration: 2 uM)	TEAD-luciferase reporter activity (compound concentration: 10 uM)
O=C(O)c1n[nH]c2c1C[C@H]1C[C@@H]21	inactive: -0.228	inactive: -2	inactive: 0.493
CC(=O)N1CC2(Cc3ccccc31)CN(C(=O)c1ccccc1Cl)C2	inactive: -0.0619	–	inactive: -1.35
COc1ccc(-c2nc(N3CCOCC3)c3sc(CN(C)c4ncc(C(=O)NO)cn4)cc3n2)cn1	inactive: 0.0837	active: 16.9	active: 25.4
C[C@H](Cc1ccc(-c2ncc(NC(=O)C(F)(F)F)o2)cc1)N1CC(c2cccc(Cl)c2)OC1=O (stereo partly specified)	inactive: 0.654	inactive: 0.739	inactive: 0.26
CCC(=O)c1ccc(OCC(O)CN2CCN(c3ccccc3)CC2)cc1 (stereo unspecified) [Centpropazine]	inactive: -1.3	inactive: -0.713	inactive: -1.1
CC[C@@H]1/C=C(\C)C[C@H](C)C[C@H](OC)[C@H]2O[C@@](O)(C(=O)C(=O)N3CCCC[C@H]3C(=O)O[C@H](/C(C)=C/[C@@H]3CC[C@@H](O)[C@H](OC)C3)[C@H](C)[C@@H](O)CC1=O)[C@H](C)C[C@@H]2OC [Immunomycin]	inactive: -0.262	inactive: 0.259	inactive: 3.7
OCC(O)C(O)C(O)C(O)COC1OC(CO)C(O)C(O)C1O (stereo unspecified)	inactive: -0.0761	inactive: -0.288	active: 8.07
OC(CN1CCN(C(c2ccccc2)c2ccccc2)CC1)c1ccccc1 (stereo unspecified)	active: 5.91	inactive: -0.106	inactive: -1.13
CN1CCCC(N2NC(=Cc3ccc(Cl)cc3)c3ccccc3C2=O)CC1 (stereo unspecified)	inactive: -0.73	inactive: -0.825	inactive: -0.502
CCCCc1nc(Cl)c(C(=O)O)n1Cc1ccc(-c2ccccc2-c2nnn[nH]2)cc1 [Carboxylosartan]	inactive: -0.365	inactive: -1.86	inactive: -0.181
CCCC(CCC)C(=O)O[C@H]1C[C@H]2CC[C@@H](C1)[N+]2(C)C [Octatropine methylbromide]	inactive: -0.905	inactive: 2.44	inactive: -1.85
NS(=O)(=O)c1cccc(CCCCOCCCCCCNCC(O)c2ccc(O)c(CO)c2)c1 (stereo unspecified)	inactive: -0.217	inactive: -0.213	inactive: -1.24
COc1ccc2cc([C@H](C)C(=O)O)ccc2c1 [Naproxen sodium]	inactive: 0.651	inactive: 1.34	inactive: -1.63
COc1ccc2cc([C@H](C)C(=O)O)ccc2c1 [Naproxen]	–	inactive: -0.487	–
CC/C(C(=O)O)=C(\CC)C(=O)O	inactive: -0.129	inactive: -1	inactive: -1.96
FC(F)(F)c1ccc(Nc2ncnc3cc(-c4ncccc4C(F)(F)F)ccc23)cc1	inactive: 0.165	inactive: -1.74	inactive: -1.26
CC(C)c1cccc(C(C)C)c1NC(=O)NCC1(c2ccc(N3CC=CC3)cc2)O[C@@H](C)[C@@H](C)O1 (stereo partly specified)	inactive: -1.13	inactive: -1.02	inactive: -0.983

SMILES	TEAD-luciferase reporter activity (compound concentration: 200 nM)	TEAD-luciferase reporter activity (compound concentration: 2 uM)	TEAD-luciferase reporter activity (compound concentration: 10 uM)
CC1=C(C(=O)NCCc2ccccc2)SC2=NC(C)(C)CN21	inactive: -1.52	inactive: 1.79	inactive: 2.47
Nc1ccn([C@@H]2O[C@@](CO)(CCl)[C@@H](O)[C@H]2F)c(=O)n1	inactive: 0.534	inactive: -0.672	inactive: 1.49
Cc1cc([C@@H](C)Nc2ccccc2C(=O)O)c2nc(N3CCOCC3)cc(=O)n2c1	inactive: -0.64	inactive: -0.442	inactive: -1.28
CC(=O)Nc1ccc(OC(=O)c2ccccc2OC(C)=O)cc1	inactive: 0.747	inactive: -0.617	inactive: 0.923
CN(C)c1ccc(NC(=O)NS(=O)(=O)c2ccc(Cl)cc2)cc1	inactive: -1.12	inactive: -0.562	inactive: 0.535
CN(C)Cc1ccc2c(Cl)cc(Cl)c(O)c2n1	inactive: -0.872	inactive: 2.46	inactive: 0.326
NCc1ccccc1CC(=O)N[C@@H]1C(=O)N2C(C(=O)O)=C(CSc3nnnn3CC(=O)O)CS[C@H]12 [Ceforanide]	inactive: -3.58	–	inactive: -0.477
NCc1ccccc1CC(=O)N[C@@H]1C(=O)N2C(C(=O)O)=C(CSc3nnnn3CC(=O)O)CS[C@H]12 [ceforanide]	–	inactive: -2.4	–
Cc1cc(/C(=C\Nc2ccc(Cl)cc2)C(=O)Nc2ccc(Cl)cc2)on1	inactive: 3.32	inactive: -0.789	inactive: 2.91
CN(C)CCOC(c1ccccc1)c1ccccc1C(C)(C)C (stereo unspecified)	inactive: -0.909	inactive: -0.664	inactive: 1.09
CC[C@@H]1C(=O)N(C)c2cnc(Nc3ccc(C(=O)NC4CCN(C)CC4)cc3OC)nc2N1C1CCCC1	inactive: -1.4	active: 5.2	active: 6.28
CN(C)CCC/N=C1\CC(c2ccc(Cl)cc2Cl)Cc2[nH]c3ccc(Cl)cc3c(=O)c21 (stereo unspecified)	inactive: 1.78	inactive: 0.775	inactive: -0.522
CN(Cc1c(-c2ccc(Cl)cc2)nc2ccccn12)C(=O)Cc1ccccc1	inactive: -1.26	inactive: -0.334	inactive: -0.947
C[C@H](CCC(=O)N(C)CC(=O)O)[C@H]1CC[C@H]2[C@@H]3[C@H](O)C[C@@H]4C[C@H](O)CCC4(C)[C@H]3C[C@H](O)[C@]12C (stereo partly specified) [Cholylsarcosine]	inactive: -0.0734	inactive: -0.0174	inactive: 0.903
CCNC(=O)C#Cc1ccc2c(c1)NC(=O)/C2=C(\Nc1ccc(CN(C)C)cc1)c1ccccc1	inactive: -1.68	inactive: -2.7	inactive: 0.971
Cc1cc2ncn(C/C=C3\c4ccccc4COc4ccc(C(=O)O)cc43)c2cc1C	inactive: 0.477	inactive: 1.36	inactive: 0.769
Cc1nc(NNC(=O)[C@H](CC2CCCC2)CN(O)C=O)c(F)c(N2CCN3CCOC[C@@H]3C2)n1	inactive: -1.79	inactive: 0.432	inactive: -0.682

Complete entries as entered above:
CN1CCCC(N2NC(=Cc3ccc(Cl)cc3)c3ccccc3C2=O)CC1 (stereo unspecified) is listed as TEAD-luciferase reporter activity (compound concentration: 200 nM): inactive: -0.73; TEAD-luciferase reporter activity (compound concentration: 2 uM): inactive: -0.825; TEAD-luciferase reporter activity (compound concentration: 10 uM): inactive: -0.502
Nc1ccn([C@@H]2O[C@@](CO)(CCl)[C@@H](O)[C@H]2F)c(=O)n1 is listed as TEAD-luciferase reporter activity (compound concentration: 200 nM): inactive: 0.534; TEAD-luciferase reporter activity (compound concentration: 2 uM): inactive: -0.672; TEAD-luciferase reporter activity (compound concentration: 10 uM): inactive: 1.49
